Assay results published in patent publication US11406707B2, “STAT3 phosphorylation during graft-versus-host disease” (H. LEE MOFFITT CANCER CENTER AND RESEARCH INSTITUTE, INC., priority 2014, dated 2022).
For at least one compound, name, drawing or mass did not settle the structure.

Amino acid sequences for entries named in this document (tags omitted).
UniProt P40763, whole entry: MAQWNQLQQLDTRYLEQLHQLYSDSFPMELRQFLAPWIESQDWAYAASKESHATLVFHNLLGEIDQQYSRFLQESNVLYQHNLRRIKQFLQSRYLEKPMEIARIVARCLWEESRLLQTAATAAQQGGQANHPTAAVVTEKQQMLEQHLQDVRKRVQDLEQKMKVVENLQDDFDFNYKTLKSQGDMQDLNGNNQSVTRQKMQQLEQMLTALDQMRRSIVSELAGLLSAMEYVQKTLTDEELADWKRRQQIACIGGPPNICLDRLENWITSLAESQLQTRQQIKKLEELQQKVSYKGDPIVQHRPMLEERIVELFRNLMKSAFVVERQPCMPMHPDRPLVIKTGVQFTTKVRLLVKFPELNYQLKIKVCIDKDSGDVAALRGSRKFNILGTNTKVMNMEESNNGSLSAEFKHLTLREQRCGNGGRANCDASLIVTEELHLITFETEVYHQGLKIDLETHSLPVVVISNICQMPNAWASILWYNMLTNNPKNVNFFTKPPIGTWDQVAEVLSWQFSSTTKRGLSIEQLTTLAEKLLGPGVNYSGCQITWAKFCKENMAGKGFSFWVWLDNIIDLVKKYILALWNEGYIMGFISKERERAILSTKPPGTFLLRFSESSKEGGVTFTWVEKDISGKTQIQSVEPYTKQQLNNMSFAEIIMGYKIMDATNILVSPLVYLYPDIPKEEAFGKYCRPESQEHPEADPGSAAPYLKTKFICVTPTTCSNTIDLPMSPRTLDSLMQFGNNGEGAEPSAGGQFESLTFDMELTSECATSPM

Key:
RORgammaT = RORgammaT expression by RT-PCR in allostimulated CD4+ T-cells; format: cell-based, human; conditions: rapamycin 10 ng/ml alone, 5 days
Method: To optimize the detection of RORgammaT expression, CD4+ T-cells were isolated by magnetic bead negative selection (Miltenyi Biotec, Auburn, Calif. USA). […] (2011) Blood 118:5330-9; Betts, B C, et al. (2013) J Leukoc Biol. 2014 95(2):205-13; Betts, B C, et al. (2011) Blood 118:5340-3]. […] After the 5 day culture, the T-cells were harvested. Total RNA was extracted using TRIZOL (Life Technologies) according to manufacturer instructions. […] RT-PCR was carried out on an ABI 7900 instrument (Applied Biosystems) and performed [Ratajewski, M, et al. (2012) J Immunol 189:3034-42] with some modification using SYBR® Green PCR Master Mix (Life Technologies) as follows: 10 minutes at 95° C. and then 45 cycles each at 95° C. for 15 seconds, 59° C. for 45 seconds, and 72° C. for 10 seconds. The following primers were used: RORgammaT forward [NT] ID NO:7) and reverse […] NO:8); GAPDH forward [NT] ID NO:9) and reverse [NT] ID NO:10). PCR product purity was assessed by dissociation curves. The differences in gene expression were calculated by 2-ΔΔCt in triplicate. Data were normalized to GAPDH expression.

[1] = rapamycin/tacrolimus vs methotrexate/tacrolimus prophylaxis, literature; cited from earlier work
primed T-cells = test: Secondary alloMLR (3-day restimulation of primed T-cells) proliferation; format: cell-based, human; conditions: rapamycin 10 ng/ml alone
Source text: (§1) Bulk donor T-cells were allostimulated with cytokine-matured, allogeneic moDCs at a DC:T-cell ratio of 1:30 as previously described (Florida Blood Services) [Betts, B C, et al. (2011) Blood 118:5330-9; Betts, B C, et al. […] Betts, B C, et al. (2011) Blood 118:5340-3]. […] Lower doses of each drug were used in these experiments to mimic expected physiologic concentrations [Siddiquee, K, et al. (2007) Proceedings of the National Academy of Sciences of the United States of America 104:7391-6; Zeiser, R, et al. (2008) Blood 111:453-62], and to better detect potential synergistic activity with the combination of rapamycin and S3I-201. After 5 days of culture at […]-cell proliferation was measured by a colorimetric assay per the manufacturer's instructions (CellTiter 96 Aqueous One Solution Cell Proliferation Assay [MTS]; Promega, Madison, Wis. USA) [Betts, B C, et al. (2011) Blood 118:5330-9; Betts, B C, et al. […] Betts, B C, et al. (2011) Blood 118:5340-3]. Absorbance/optical density (OD) was analyzed at 490 nm. Secondary alloMLR: […] Following priming, the T-cells were then rested and re-cultured with fresh first-party moDCs (DC:T-cell ratio of 1:30). […] After 3 days, T-cell proliferation was measured by a colorimetric assay as described (Promega). T-cells alone and PHA-stimulated T-cells served as negative and positive controls, respectively, for both the primary and secondary alloMLRs.

STAT3 Y705 = molecular target: T1, STAT3 Y705 (Homo sapiens, UniProt P40763); test: IL-6-STAT3 Y705 phosphorylation in DC-allostimulated donor T-cells; format: cell-based; conditions: rapamycin 100 ng/ml, 4 hours, IL-6 pulse
T1 construct: endogenous in cells; host or cells: primary human T cells from healthy-donor PBMC, allostimulated by monocyte-derived dendritic cells
Method: T-cells were serum-starved in RPMI treated with DMSO diluent control, rapamycin 100 ng/ml (EMD Millipore, Billerica, Mass. USA), or STAT3 inhibitor S3I-201 50 uM (H. Lee Moffitt Cancer Center, Drug Discovery Core) for 4 hours. For the STAT3 experiments, the T-cells were first DC-allostimulated (DC:T-cell ratio of 1:30) for 3 days to optimize surface expression of IL-6 receptor alpha and STAT3 signaling among healthy volunteers. The T-cells were then cytokine-pulsed for 15 minutes with either IL-2 (R&D Systems) to activate the Akt-mTOR-S6 pathway, or IL-6 to stimulate STAT3 phosphorylation. The cells were then fixed and permeabilized as described, and then stained for CD3, CD4 (STAT3 experiments), phosphorylated STAT3 Y705, and phosphorylated S6.

[2] = molecular target: STAT3 Ser727 and Y705 motifs (Homo sapiens, UniProt P40763); conditions: literature; cited from earlier work
[3] = tested on: tissue-resident TH17 cells; test: GVHD tissue immunohistochemistry in patients on rapamycin or methotrexate prophylaxis; format: in vivo, human; conditions: rapamycin/tacrolimus GVHD prophylaxis
[4] = tested on: allostimulated T-cell proliferation; test: Primary 5-day alloMLR T-cell proliferation; format: cell-based, human; conditions: rapamycin 10 ng/ml alone, P=0.06
Source text: as §1

Structure (SMILES): CO[C@H]1C[C@@H]2CC[C@@H](C)[C@@](O)(O2)C(=O)C(=O)N2CCCC[C@H]2C(=O)O[C@H]([C@H](C)C[C@@H]2CC[C@@H](O)[C@H](OC)C2)CC(=O)[C@H](C)/C=C(\C)[C@@H](O)[C@@H](OC)C(=O)[C@H](C)C[C@H](C)/C=C/C=C/C=C/1C [rapamycin]
- RORgammaT expression compared with DMSO (RORgammaT): significant suppression
- grade II-IV acute GVHD in total study population [1]: reduction in grade II-IV acute GVHD
- proliferation of primed T-cells on rechallenge (primed T-cells): significantly suppressed
- STAT3 Y705 phosphorylation (STAT3 Y705): little effect
- phosphorylation of the STAT3 Ser727 motif [2]: inhibits phosphorylation
- phosphorylation of the STAT3 Y705 motif [2]: does not affect
- other lymphocyte subsets (Th1, Treg) vs methotrexate treatment [3]: did not differ
- tissue-resident TH17 cells vs methotrexate-treated patients ([3]; biopsies at GVHD diagnosis): significantly lower
- alloresponse (T-cell proliferation) [4]: modestly affected
